Measurements as given in doi:10.1101/2024.12.02.626492.

By UniProt entry, the sequences of proteins in these tests, tags left out. Where a name states a change or a piece, a line headed by the entry shows the natural chain unless it says otherwise.
UniProt P41351: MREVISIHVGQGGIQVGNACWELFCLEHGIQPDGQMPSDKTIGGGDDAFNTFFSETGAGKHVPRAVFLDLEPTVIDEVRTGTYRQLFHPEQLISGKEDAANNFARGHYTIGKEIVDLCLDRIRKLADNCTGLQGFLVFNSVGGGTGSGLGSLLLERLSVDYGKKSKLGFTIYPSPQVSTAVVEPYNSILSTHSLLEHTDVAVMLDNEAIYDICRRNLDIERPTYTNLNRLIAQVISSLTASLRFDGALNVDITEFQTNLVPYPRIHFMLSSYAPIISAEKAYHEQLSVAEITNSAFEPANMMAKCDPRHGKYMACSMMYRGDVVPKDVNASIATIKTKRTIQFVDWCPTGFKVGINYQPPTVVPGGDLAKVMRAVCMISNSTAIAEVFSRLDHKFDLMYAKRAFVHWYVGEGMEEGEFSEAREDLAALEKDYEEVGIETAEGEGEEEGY
UniProt P41352: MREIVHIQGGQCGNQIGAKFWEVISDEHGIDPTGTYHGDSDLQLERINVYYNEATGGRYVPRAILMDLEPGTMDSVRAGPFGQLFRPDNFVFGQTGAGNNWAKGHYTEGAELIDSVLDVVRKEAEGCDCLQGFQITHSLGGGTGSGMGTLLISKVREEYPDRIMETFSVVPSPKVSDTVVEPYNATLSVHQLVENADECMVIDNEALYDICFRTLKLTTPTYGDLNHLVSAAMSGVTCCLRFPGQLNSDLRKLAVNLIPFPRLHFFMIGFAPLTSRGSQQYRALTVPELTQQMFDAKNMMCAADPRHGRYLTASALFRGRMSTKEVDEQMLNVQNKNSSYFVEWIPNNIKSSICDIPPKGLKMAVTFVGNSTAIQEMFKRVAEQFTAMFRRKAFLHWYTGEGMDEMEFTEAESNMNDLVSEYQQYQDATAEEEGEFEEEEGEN
UniProt I7M0H4: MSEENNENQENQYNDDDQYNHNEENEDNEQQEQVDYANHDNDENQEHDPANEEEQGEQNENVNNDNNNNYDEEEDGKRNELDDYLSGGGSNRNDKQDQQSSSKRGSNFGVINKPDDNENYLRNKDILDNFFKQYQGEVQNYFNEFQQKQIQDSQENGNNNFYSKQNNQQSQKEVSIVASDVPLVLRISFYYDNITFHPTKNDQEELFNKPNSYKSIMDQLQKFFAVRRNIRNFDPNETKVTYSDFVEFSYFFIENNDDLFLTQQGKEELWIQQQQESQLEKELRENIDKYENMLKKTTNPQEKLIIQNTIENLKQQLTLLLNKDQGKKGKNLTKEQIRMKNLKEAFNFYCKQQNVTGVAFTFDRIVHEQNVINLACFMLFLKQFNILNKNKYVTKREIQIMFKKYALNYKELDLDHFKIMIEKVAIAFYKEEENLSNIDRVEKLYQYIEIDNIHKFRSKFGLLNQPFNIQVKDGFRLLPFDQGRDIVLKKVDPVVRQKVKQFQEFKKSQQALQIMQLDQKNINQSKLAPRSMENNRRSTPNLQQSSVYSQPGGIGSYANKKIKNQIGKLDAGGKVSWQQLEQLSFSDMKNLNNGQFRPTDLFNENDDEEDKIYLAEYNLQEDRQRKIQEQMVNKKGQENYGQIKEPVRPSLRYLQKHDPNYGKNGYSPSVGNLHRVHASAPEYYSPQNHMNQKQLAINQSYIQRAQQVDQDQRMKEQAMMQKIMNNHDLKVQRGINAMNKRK
UniProt Q22DM0: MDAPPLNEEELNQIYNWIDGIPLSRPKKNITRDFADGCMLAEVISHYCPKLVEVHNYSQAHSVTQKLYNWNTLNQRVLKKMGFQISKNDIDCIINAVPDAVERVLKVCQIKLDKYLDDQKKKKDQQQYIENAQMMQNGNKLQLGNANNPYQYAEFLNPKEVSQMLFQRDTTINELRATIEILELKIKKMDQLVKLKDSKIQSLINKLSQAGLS
UniProt I7M5Z8: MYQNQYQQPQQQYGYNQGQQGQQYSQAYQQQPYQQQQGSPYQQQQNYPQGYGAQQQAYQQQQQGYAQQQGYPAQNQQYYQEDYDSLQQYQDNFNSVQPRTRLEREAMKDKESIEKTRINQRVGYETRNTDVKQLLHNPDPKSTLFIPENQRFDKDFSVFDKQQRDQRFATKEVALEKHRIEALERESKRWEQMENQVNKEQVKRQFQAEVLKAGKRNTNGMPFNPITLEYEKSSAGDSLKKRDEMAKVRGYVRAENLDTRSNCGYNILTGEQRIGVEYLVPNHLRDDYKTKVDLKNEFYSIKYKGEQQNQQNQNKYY

Assays:
[1] = molecular target: α-tubulin (Tetrahymena thermophila, tip central pair microtubules) (Tetrahymena thermophila (endogenous in cilia)) (UniProt P41351); test: cryo-EM structure; single-particle cryo-EM of the native tip central pair from demembranated, ATP-split axonemes of Tetrahymena CU428 cilia; 8-nm repeat, overall 3.9 Å, local maps 3.6 to 4.4 Å; proteins assigned with DomainFit and AlphaFold2 models
[2] = molecular target: β-tubulin (Tetrahymena thermophila, tip central pair microtubules) (Tetrahymena thermophila (endogenous in cilia)) (UniProt P41352); test: as above

| binding [1] | binding [2] | Substance |
| --- | --- | --- |
| binds | binds | TPPP-like protein 1 (TLP1) (from UniProt I7M0H4) |
| binds | binds | SPEF1A (Tetrahymena thermophila) (from UniProt Q22DM0) |
| – | binds | CFAP213 (Tetrahymena thermophila) (from UniProt I7M5Z8) |

Results are given in words; binding and its absence hold for the method and conditions named. Binding can be weak; no strength is given.
